For at least one compound, name, drawing or mass did not settle the structure.
Tests used:
[1] = test system: chronic constriction injury model of neuropathic pain; assay: CCI model of neuropathic pain, reversal of mechano-allodynia; design: species or system mice; conditions: mouse, in vivo
human DAT = human DAT (Homo sapiens (Human), UniProt Q01959); assay: Radioligand ([3H]WIN35428) binding at the dopamine transporter

Protein sequences, listed by entry. Tags and fused reporters are not part of them.
UniProt Q01959, whole entry: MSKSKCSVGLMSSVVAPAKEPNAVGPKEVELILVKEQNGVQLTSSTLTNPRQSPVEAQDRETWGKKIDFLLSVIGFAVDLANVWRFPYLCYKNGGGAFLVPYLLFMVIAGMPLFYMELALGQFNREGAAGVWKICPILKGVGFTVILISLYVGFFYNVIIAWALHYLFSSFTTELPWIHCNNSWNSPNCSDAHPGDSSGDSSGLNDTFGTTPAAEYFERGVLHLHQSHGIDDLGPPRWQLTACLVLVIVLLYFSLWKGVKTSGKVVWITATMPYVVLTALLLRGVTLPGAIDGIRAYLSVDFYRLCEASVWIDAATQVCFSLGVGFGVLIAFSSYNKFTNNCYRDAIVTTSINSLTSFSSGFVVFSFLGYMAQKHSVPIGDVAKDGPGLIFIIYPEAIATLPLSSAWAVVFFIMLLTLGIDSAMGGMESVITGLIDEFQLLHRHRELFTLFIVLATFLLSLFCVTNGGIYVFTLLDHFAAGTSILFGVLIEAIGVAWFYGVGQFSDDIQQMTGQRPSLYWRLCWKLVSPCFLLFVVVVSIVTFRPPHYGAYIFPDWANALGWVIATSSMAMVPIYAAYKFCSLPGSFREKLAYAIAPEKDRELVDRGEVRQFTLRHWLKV

| SMILES | Duration of action in chronic pain suppression compared with MRS7140 [1] | Interaction with DAT (human DAT) |
| --- | --- | --- |
| CCNc1cc(C#Cc2ccc(Cl)s2)nc2c1ncn2[C@H]1C(O)[C@@H](O)[C@]2(C(=O)NC)C[C@H]12 (some centres unmarked) [MRS7144] | longer duration of action |  |
| CNC(=O)[C@@]12C[C@@H]1[C@@H](n1cnc3c(NC)cc(C#Cc4ccc(Cl)s4)nc31)C(O)[C@H]2O (some centres unmarked) [Compound 127] |  | no effect |
